Measured values as given in the supplement of paper PMC8728848.
The other results are listed elsewhere or left out.

Experiments:
Test in all cases: glycan array binding signal (z-score within array); higher = stronger binding
Details in all cases: glycan notation: IUPAC condensed, linker removed
[1] = molecular target: GlcNAc(a1-4)Gal(b1-3)GlcNAc
Outline: (§1)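 Glycan array data came from 3228 arrays in the Consortium for Functional Glycomics database, and only arrays with an available protein sequence were kept. Glycan names were put into IUPAC-condensed notation, and columns mapping to the same glycan were averaged. The binding signal is a within-array Z-score, averaged across arrays of one protein sequence run at different concentrations or buffers and across linkers. A negative Z-score can be read as non-binding.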

[2] = molecular target: GlcNAc(a1-4)Gal(b1-4)GalNAc
Outline: as §1

[3] = molecular target: GlcNAc(a1-4)Gal(b1-4)GlcNAc
Outline: as §1

[4] = molecular target: GlcNAc(a1-4)Gal(b1-4)GlcNAc(b1-3)Gal(b1-4)Glc
Outline: as §1

[5] = molecular target: GlcNAc(a1-4)Gal(b1-4)GlcNAc(b1-3)Gal(b1-4)GlcNAc
Outline: as §1

[6] = molecular target: GlcNAc(a1-4)Gal(b1-4)GlcNAc(b1-3)Gal(b1-4)GlcNAc(b1-3)Gal(b1-4)GlcNAc
Outline: as §1

[7] = molecular target: GlcNAc(a1-4)Gal(b1-4)GlcNAc(b1-3)Gal(b1-4)[Fuc(a1-3)]GlcNAc(b1-3)Gal(b1-4)[Fuc(a1-3)]GlcNAc
Outline: as §1

[8] = molecular target: GlcNAc(a1-6)Gal(b1-4)GlcNAc
Outline: as §1

[9] = molecular target: GlcNAc(b1-2)Gal(b1-3)GalNAc
Outline: as §1

[10] = molecular target: GlcNAc(b1-2)Man(a1-3)[GlcNAc(b1-2)Man(a1-6)]Man(b1-4)GlcNAc(b1-4)GlcNAc
Outline: as §1

[11] = molecular target: GlcNAc(b1-2)Man(a1-3)[GlcNAc(b1-2)Man(a1-6)]Man(b1-4)GlcNAc(b1-4)[Fuc(a1-6)]GlcNAc
Outline: as §1

[12] = molecular target: GlcNAc(b1-2)Man(a1-3)[GlcNAc(b1-4)][GlcNAc(b1-2)Man(a1-6)]Man(b1-4)GlcNAc(b1-4)GlcNAc
Outline: as §1

[13] = molecular target: GlcNAc(b1-2)Man(a1-3)[GlcNAc(b1-4)][GlcNAc(b1-2)Man(a1-6)]Man(b1-4)GlcNAc(b1-4)[Fuc(a1-6)]GlcNAc
Outline: as §1

[14] = molecular target: GlcNAc(b1-2)[GlcNAc(b1-4)]Man(a1-3)[GlcNAc(b1-2)Man(a1-6)]Man(b1-4)GlcNAc(b1-4)GlcNAc
Outline: as §1

[15] = molecular target: GlcNAc(b1-2)[GlcNAc(b1-4)]Man(a1-3)[GlcNAc(b1-4)][GlcNAc(b1-2)Man(a1-6)]Man(b1-4)GlcNAc(b1-4)GlcNAc
Outline: as §1

[16] = molecular target: GlcNAc(b1-2)[GlcNAc(b1-4)]Man(a1-3)[GlcNAc(b1-4)][GlcNAc(b1-2)[GlcNAc(b1-6)]Man(a1-6)]Man(b1-4)GlcNAc(b1-4)GlcNAc
Outline: as §1

[17] = molecular target: GlcNAc(b1-2)[GlcNAc(b1-4)]Man(a1-3)[GlcNAc(b1-4)][GlcNAc(b1-2)[GlcNAc(b1-6)]Man(a1-6)]Man(b1-4)GlcNAc(b1-4)[Fuc(a1-6)]GlcNAc
Outline: as §1

[18] = molecular target: GlcNAc(b1-2)[GlcNAc(b1-6)]Man(a1-6)[GlcNAc(b1-2)Man(a1-3)]Man(b1-4)GlcNAc(b1-4)GlcNAc
Outline: as §1

[19] = molecular target: GlcNAc(b1-2)[GlcNAc(b1-6)]Man(a1-6)[GlcNAc(b1-2)Man(a1-3)]Man(b1-4)GlcNAc(b1-4)[Fuc(a1-6)]GlcNAc
Outline: as §1

[20] = molecular target: GlcNAc(b1-2)[GlcNAc(b1-6)]Man(a1-6)[GlcNAc(b1-4)][GlcNAc(b1-2)Man(a1-3)]Man(b1-4)GlcNAc(b1-4)GlcNAc
Outline: as §1

[21] = molecular target: GlcNAc(b1-3)Fuc
Outline: as §1

[22] = molecular target: GlcNAc(b1-3)Gal
Outline: as §1

[23] = molecular target: GlcNAc(b1-3)Gal(b1-3)GalNAc
Outline: as §1

[24] = molecular target: GlcNAc(b1-3)Gal(b1-4)Glc
Outline: as §1

[25] = molecular target: GlcNAc(b1-3)Gal(b1-4)GlcNAc
Outline: as §1

[26] = molecular target: GlcNAc(b1-3)Gal(b1-4)GlcNAc(b1-2)Man(a1-3)[GlcNAc(b1-3)Gal(b1-4)GlcNAc(b1-2)Man(a1-6)]Man(b1-4)GlcNAc(b1-4)GlcNAc
Outline: as §1

[27] = molecular target: GlcNAc(b1-3)Gal(b1-4)GlcNAc(b1-2)Man(a1-3)[GlcNAc(b1-3)Gal(b1-4)GlcNAc(b1-2)Man(a1-6)]Man(b1-4)GlcNAc(b1-4)[Fuc(a1-6)]GlcNAc
Outline: as §1

[28] = molecular target: GlcNAc(b1-3)Gal(b1-4)GlcNAc(b1-2)[GlcNAc(b1-3)Gal(b1-4)GlcNAc(b1-6)]Man(a1-6)[GlcNAc(b1-3)Gal(b1-4)GlcNAc(b1-2)Man(a1-3)]Man(b1-4)GlcNAc(b1-4)GlcNAc
Outline: as §1

[29] = molecular target: GlcNAc(b1-3)Gal(b1-4)GlcNAc(b1-3)Gal(b1-4)GlcNAc
Outline: as §1

[30] = molecular target: GlcNAc(b1-3)Gal(b1-4)GlcNAc(b1-3)Gal(b1-4)GlcNAc(b1-2)Man(a1-3)[GlcNAc(b1-3)Gal(b1-4)GlcNAc(b1-3)Gal(b1-4)GlcNAc(b1-2)Man(a1-6)]Man(b1-4)GlcNAc(b1-4)GlcNAc
Outline: as §1

[31] = molecular target: GlcNAc(b1-3)Gal(b1-4)GlcNAc(b1-3)Gal(b1-4)GlcNAc(b1-2)Man(a1-3)[GlcNAc(b1-3)Gal(b1-4)GlcNAc(b1-3)Gal(b1-4)GlcNAc(b1-2)Man(a1-6)]Man(b1-4)GlcNAc(b1-4)[Fuc(a1-6)]GlcNAc
Outline: as §1

[32] = molecular target: GlcNAc(b1-3)Gal(b1-4)GlcNAc(b1-3)Gal(b1-4)GlcNAc(b1-2)[GlcNAc(b1-3)Gal(b1-4)GlcNAc(b1-3)Gal(b1-4)GlcNAc(b1-6)]Man(a1-6)[GlcNAc(b1-3)Gal(b1-4)GlcNAc(b1-3)Gal(b1-4)GlcNAc(b1-2)Man(a1-3)]Man(b1-4)GlcNAc(b1-4)[Fuc(a1-6)]GlcNAc
Outline: as §1

[33] = molecular target: GlcNAc(b1-3)Gal(b1-4)GlcNAc(b1-3)Gal(b1-4)GlcNAc(b1-3)Gal(b1-4)GlcNAc(b1-2)Man(a1-3)[GlcNAc(b1-3)Gal(b1-4)GlcNAc(b1-3)Gal(b1-4)GlcNAc(b1-3)Gal(b1-4)GlcNAc(b1-2)Man(a1-6)]Man(b1-4)GlcNAc(b1-4)GlcNAc
Outline: as §1

[34] = molecular target: GlcNAc(b1-3)Gal(b1-4)GlcNAc(b1-3)Gal(b1-4)GlcNAc(b1-3)Gal(b1-4)GlcNAc(b1-2)Man(a1-3)[GlcNAc(b1-3)Gal(b1-4)GlcNAc(b1-3)Gal(b1-4)GlcNAc(b1-3)Gal(b1-4)GlcNAc(b1-2)Man(a1-6)]Man(b1-4)GlcNAc(b1-4)[Fuc(a1-6)]GlcNAc
Outline: as §1

[35] = molecular target: GlcNAc(b1-3)Gal(b1-4)GlcNAc(b1-3)Gal(b1-4)GlcNAc(b1-3)Gal(b1-4)GlcNAc(b1-2)[GlcNAc(b1-3)Gal(b1-4)GlcNAc(b1-3)Gal(b1-4)GlcNAc(b1-3)Gal(b1-4)GlcNAc(b1-6)]Man(a1-6)[GlcNAc(b1-3)Gal(b1-4)GlcNAc(b1-3)Gal(b1-4)GlcNAc(b1-3)Gal(b1-4)GlcNAc(b1-2)Man(a1-3)]Man(b1-4)GlcNAc(b1-4)[Fuc(a1-6)]GlcNAc
Outline: as §1

[36] = molecular target: GlcNAc(b1-3)Gal(b1-4)GlcNAc(b1-3)Gal(b1-4)GlcNAc(b1-3)Gal(b1-4)GlcNAc(b1-3)Gal(b1-4)GlcNAc(b1-2)Man(a1-3)[GlcNAc(b1-3)Gal(b1-4)GlcNAc(b1-3)Gal(b1-4)GlcNAc(b1-3)Gal(b1-4)GlcNAc(b1-3)Gal(b1-4)GlcNAc(b1-2)Man(a1-6)]Man(b1-4)GlcNAc(b1-4)GlcNAc
Outline: as §1

[37] = molecular target: GlcNAc(b1-3)Gal(b1-4)GlcNAc(b1-3)Gal(b1-4)GlcNAc(b1-3)Gal(b1-4)GlcNAc(b1-3)Gal(b1-4)GlcNAc(b1-2)Man(a1-3)[GlcNAc(b1-3)Gal(b1-4)GlcNAc(b1-3)Gal(b1-4)GlcNAc(b1-3)Gal(b1-4)GlcNAc(b1-3)Gal(b1-4)GlcNAc(b1-2)Man(a1-6)]Man(b1-4)GlcNAc(b1-4)[Fuc(a1-6)]GlcNAc
Outline: as §1

[38] = molecular target: GlcNAc(b1-3)Gal(b1-4)GlcNAc(b1-3)Gal(b1-4)GlcNAc(b1-3)Gal(b1-4)GlcNAc(b1-3)Gal(b1-4)GlcNAc(b1-2)[GlcNAc(b1-3)Gal(b1-4)GlcNAc(b1-3)Gal(b1-4)GlcNAc(b1-3)Gal(b1-4)GlcNAc(b1-3)Gal(b1-4)GlcNAc(b1-6)]Man(a1-6)[GlcNAc(b1-3)Gal(b1-4)GlcNAc(b1-3)Gal(b1-4)GlcNAc(b1-3)Gal(b1-4)GlcNAc(b1-3)Gal(b1-4)GlcNAc(b1-2)Man(a1-3)]Man(b1-4)GlcNAc(b1-4)[Fuc(a1-6)]GlcNAc
Outline: as §1

B1: PX14375D-bvu-513-34-513 (Bacteroides vulgatus) (protein)
chain: TEDTFWKDETDFNLALTSCYTPLKNALNGGYYGTRGVMLRIARADEVDFRNDISDVYTVNRFTNSNTNSLTQGMFYQFYNALYRTNSIMQKLEEKKEQFSTDFQNSVKGECLFIRGFYLFQLAKEFKDAPLRLTASQSPSTFPLAKSSQADIWAQAKEDLKTAASLLPITNKIGKPTQGAAYAALGKIYVYEENWQEAINVLEPLTQNPYTYKLVEDFNWNFDDTHENNAESIFELLIEDVGGTDLWGDGENINSTQSNTRPKEYAAAEVGGWYEANPTQQIMDIFWKEKDKDGNFDYRARCSVAWDYEGCTYYQRPFREVFAQDKWKTYWILKYQNWKTQKDEPAPPKSFINERAIRYADVLLMLAEAYMNKGALDTSIGYINQIRRRANLNDYSGPITKEGVFEDLVHQRAIEFFVEGERFYDLRRWGLLEQTLKTCDDTRYKNYQTGKSDNINKFNYFPIPAKELDTNPLCTPSEGW
[1]
  glycan array binding signal (z-score): -0.072
[2]
  glycan array binding signal (z-score): 1.48
[3]
  glycan array binding signal (z-score): -0.103
[4]
  glycan array binding signal (z-score): 0.64
[5]
  glycan array binding signal (z-score): -0.133
[6]
  glycan array binding signal (z-score): 0.035
[7]
  glycan array binding signal (z-score): 0.3
[8]
  glycan array binding signal (z-score): -0.303
[9]
  glycan array binding signal (z-score): 0.068
[10]
  glycan array binding signal (z-score): -0.403
[11]
  glycan array binding signal (z-score): -0.688
[12]
  glycan array binding signal (z-score): -0.094
[13]
  glycan array binding signal (z-score): -0.348
[14]
  glycan array binding signal (z-score): 0.443
[15]
  glycan array binding signal (z-score): -0.188
[16]
  glycan array binding signal (z-score): -0.074
[17]
  glycan array binding signal (z-score): -0.453
[18]
  glycan array binding signal (z-score): 0.632
[19]
  glycan array binding signal (z-score): 0.135
[20]
  glycan array binding signal (z-score): 0.178
[21]
  glycan array binding signal (z-score): -0.96
[22]
  glycan array binding signal (z-score): -0.36
[23]
  glycan array binding signal (z-score): 0.465
[24]
  glycan array binding signal (z-score): -0.384
[25]
  glycan array binding signal (z-score): -0.373
[26]
  glycan array binding signal (z-score): -0.381
[27]
  glycan array binding signal (z-score): 1.56
[28]
  glycan array binding signal (z-score): 0.185
[29]
  glycan array binding signal (z-score): 0.08
[30]
  glycan array binding signal (z-score): 0.722
[31]
  glycan array binding signal (z-score): 1.62
[32]
  glycan array binding signal (z-score): 0.276
[33]
  glycan array binding signal (z-score): -0.714
[34]
  glycan array binding signal (z-score): 0.902
[35]
  glycan array binding signal (z-score): 2.65
[36]
  glycan array binding signal (z-score): -0.04
[37]
  glycan array binding signal (z-score): 0.697
[38]
  glycan array binding signal (z-score): 0.771
